The values below come from the supplement of paper PMC10032668.

The list shows a part of the results. Only hits are listed; about a third recur on repeated control peptides.

One experiment has as its target AGL, P35573. The experiment is described as follows: PRISMA enrichment of interactor (LFQ) in peptide spot vs all other peptide spots (log2 fold change); higher = stronger / more specific binding of the interactor to the peptide. As for the experimental part: (§1)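 PRISMA: 221 full-length sORF-encoded peptides (3-15 aa), plus SOS1/GLUT1 control peptides, were spot-synthesized on cellulose membranes in triplicate. Membranes were incubated with HEK293T lysate, and bound proteins were identified by LC-MS/MS with LFQ. Enrichment is the log2 fold change versus all other peptide spots; only significant interactors are listed (cutoff c=6, x0=2.8).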

The target in another experiment is SLC39A7, Q92504. The description is as above. As for the experimental part: as §1

For MVTMFRY [RNF216P1], the “PRISMA enrichment of interactor (log2)” value in the experiment with AGL, P35573 is 6.57; with SLC39A7, Q92504, 4.11.
